These are yes or no findings as the source states them, for the method shown. Binding seen in cells or lysates may run through a third protein. A result given as binding can be weak or reduced; the word gives no strength. Tags and fused reporters may be left off the sequences shown.
Target: T1, HA-tagged RACK7 (wild type) (UniProt Q9ULU4)
T1 sequence: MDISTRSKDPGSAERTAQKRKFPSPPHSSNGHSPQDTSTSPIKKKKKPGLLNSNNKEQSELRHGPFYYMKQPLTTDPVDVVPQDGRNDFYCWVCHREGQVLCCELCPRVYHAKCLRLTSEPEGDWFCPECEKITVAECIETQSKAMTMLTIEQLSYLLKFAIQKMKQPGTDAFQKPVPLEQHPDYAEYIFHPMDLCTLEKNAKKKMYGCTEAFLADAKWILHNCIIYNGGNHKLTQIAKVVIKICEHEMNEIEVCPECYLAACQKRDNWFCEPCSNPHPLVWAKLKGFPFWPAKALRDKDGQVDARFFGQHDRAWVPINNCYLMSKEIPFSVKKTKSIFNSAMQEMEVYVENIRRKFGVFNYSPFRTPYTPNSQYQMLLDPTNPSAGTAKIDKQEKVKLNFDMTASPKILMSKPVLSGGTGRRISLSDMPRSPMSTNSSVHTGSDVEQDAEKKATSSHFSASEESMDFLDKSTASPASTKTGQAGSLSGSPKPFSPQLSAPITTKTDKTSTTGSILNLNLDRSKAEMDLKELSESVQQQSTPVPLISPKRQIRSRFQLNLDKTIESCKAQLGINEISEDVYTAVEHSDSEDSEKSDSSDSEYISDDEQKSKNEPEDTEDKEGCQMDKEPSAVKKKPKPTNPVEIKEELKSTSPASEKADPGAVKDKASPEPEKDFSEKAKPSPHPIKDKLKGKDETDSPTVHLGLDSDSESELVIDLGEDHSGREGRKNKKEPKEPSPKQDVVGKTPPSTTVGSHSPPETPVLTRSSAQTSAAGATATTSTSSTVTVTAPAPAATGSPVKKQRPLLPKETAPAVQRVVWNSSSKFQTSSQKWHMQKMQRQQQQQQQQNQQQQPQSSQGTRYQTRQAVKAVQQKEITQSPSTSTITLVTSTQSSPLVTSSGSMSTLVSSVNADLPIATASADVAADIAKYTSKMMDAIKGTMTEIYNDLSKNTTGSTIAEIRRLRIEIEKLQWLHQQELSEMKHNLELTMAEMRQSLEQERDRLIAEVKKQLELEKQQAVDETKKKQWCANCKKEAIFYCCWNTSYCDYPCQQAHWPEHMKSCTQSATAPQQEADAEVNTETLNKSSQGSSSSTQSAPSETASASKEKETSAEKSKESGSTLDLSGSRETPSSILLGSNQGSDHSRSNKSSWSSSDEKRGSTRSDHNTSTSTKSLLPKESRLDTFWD
Experiment: co-IP

| Substance | binding |
| --- | --- |
| endogenous INTS10 | binds |
| endogenous INTS15 | binds |
